# Laboratory results: PubChem BioAssay AID1259254 (NCATS, 2017)
# Test: 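Gene knock-downs that lead to re-replication, shown by excess G2 DNA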 (primary screen)
# System: human HCT116 colorectal cancer cells
# Knock-down reagent: single siRNA against human genes
# Timing: 3 days
# Read-out: 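Nuclei stained with Hoechst and imaged; cell-cycle phase assigned by DNA content; G2 share scaled per plate, non-targeting siRNA 0%, GMNN siRNA 100%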
# Scale: G2 robust z-score and G2 cells, % of GMNN control: higher = more G2 cells, more excess DNA replication; raw share of cells in G2: higher = larger share of cells with G2 DNA content
# Rule for the call: 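An siRNA counts as active if its G2 robust z-score lies at least 5 MADs above the screen median; here such calls match roughly 38% of GMNN control or more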
# In all, the deposit lists about 59,000 reagents; below is a random part of them. About 1,550 of all reagents (2.6%) count as active. 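G2 share is only a proxy for re-replication; each gene was hit by three separate siRNAs, and active genes were retested.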 The raw values are shown without normalisation. Unmarked entries are inactive. The numbers tell different reagents against one gene apart. Not stated in the record: the amount of reagent.
gene,reagent no.,G2 robust z-score,"G2 cells, % of GMNN control",raw share of cells in G2 (%)
MDH1B (GeneID 130752),1,1.31,12.2,9.17
MDH1B (GeneID 130752),2,-0.176,1.73,6.78
MDH1B (GeneID 130752),3,0.285,4.97,6.79
KLF10 (GeneID 7071),1,-0.0449,2.65,4.51
KLF10 (GeneID 7071),2,0.323,5.24,7.3
KLF10 (GeneID 7071),3,0.162,4.11,4.6
HTR6 (GeneID 3362),1,-1.11,-4.86,4.1
HTR6 (GeneID 3362),2,5.12 (active),39,18.1
HTR6 (GeneID 3362),3,4.95,37.8,14.9
HMGN2 (GeneID 3151),1,-0.256,1.16,6.13
HMGN2 (GeneID 3151),2,0.948,9.63,7.73
HMGN2 (GeneID 3151),3,-0.939,-3.64,3.72

Reformatted: results already given.
gene	reagent no.	G2 robust z-score	G2 cells, % of GMNN control	raw share of cells in G2 (%)
HMGN2 (GeneID 3151)	1	-0.256	1.16	6.13
HMGN2 (GeneID 3151)	2	0.948	9.63	7.73

The listing continues.
gene,reagent no.,G2 robust z-score,"G2 cells, % of GMNN control",raw share of cells in G2 (%)
TOX3 (GeneID 27324),1,-0.0863,2.36,7.23
TOX3 (GeneID 27324),2,1.21,11.5,8
TOX3 (GeneID 27324),3,-1.13,-4.98,2.36
MRAP2 (GeneID 112609),1,0.167,4.14,3.03
MRAP2 (GeneID 112609),2,-0.262,1.12,4.54
MRAP2 (GeneID 112609),3,1.71,15,7.8
TARP (GeneID 445347),1,3.61,28.4,12.8
TARP (GeneID 445347),2,1.79,15.6,9.64
TARP (GeneID 445347),3,0.59,7.12,6.11
VSTM2B-DT (GeneID 284395),1,-0.954,-3.75,2.13
VSTM2B-DT (GeneID 284395),2,0.0158,3.08,4.76
VSTM2B-DT (GeneID 284395),3,-0.318,0.728,3.33
FAM227B (GeneID 196951),1,-0.485,-0.444,3.44
FAM227B (GeneID 196951),2,-0.828,-2.86,2
FAM227B (GeneID 196951),3,-0.0381,2.7,3.62
DOC2B (GeneID 8447),1,-0.661,-1.68,4.1
DOC2B (GeneID 8447),2,2.58,21.1,12.7
DOC2B (GeneID 8447),3,-0.511,-0.626,4.25
